In series [1] the test system is T1, NCAMP-1 on the surface of nonspecific cytotoxic cells (Ictalurus punctatus).
T1 sequence: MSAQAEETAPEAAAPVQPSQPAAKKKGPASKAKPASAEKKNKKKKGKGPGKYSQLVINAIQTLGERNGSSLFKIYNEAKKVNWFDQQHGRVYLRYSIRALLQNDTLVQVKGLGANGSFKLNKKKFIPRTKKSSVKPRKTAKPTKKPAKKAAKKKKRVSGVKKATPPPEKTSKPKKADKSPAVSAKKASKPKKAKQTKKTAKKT
The experiment in a line: competition with a labelled probe. Particulars: protein on the cell surface, single-stranded DNA.

Series [2] has as its system T2, NCAMP-1 (native 29 kDa NCC membrane protein) (Ictalurus punctatus).
T2 sequence: T1 sequence
The experiment in a line: binding assay. The following applies: protein in an extract, single-stranded DNA.

In series [3] the test system is NCAMP-1 (histone H1X-like ODN binding protein), recombinant (Ictalurus punctatus). The experiment in a line: binding assay. Particulars: Southwestern blot; minimal binding, used as negative control; purified recombinant protein; protein details: C-terminal 6xHis (pET-21b, E. coli); label: biotin; single-stranded DNA.

This note sets out measurements from patent US20090311278A1, “Novel teleost derived antimicrobial polypeptides” (THE UNIVERSITY OF GEORGIA RESEARCH FOUNDATION, published 2009).

For some assays here: Weaker means in comparison with the reference protein, sequence or condition of that experiment. For some assays here: At least one result comes from cells or an extract, where the contact may be indirect. For some assays here: Negatives hold for the conditions tested. For some assays here: Where a protein sequence is shown, tags need not be part of it.

Consider AAAAAAAAAAAAAAAAAAAA [dA20], for which the binding result in series [1] (dA20 does not prevent anti-NCAMP-1 binding to NCC, label: biotin) was “no binding”; in series [2] (ligand blot of NCC membranes, 29 kDa band absent, label: biotin), “no binding”; in series [3] it was “binds more weakly”.

Turning to TGCTGCTTGTGCTTGTGCTT [GpC ODN], the binding result in series [1] (reciprocal competition with anti-NCAMP-1 IgG on NCC, flow cytometry, label: biotin (3')) was “binds”; in series [2] (Southwestern blot of NCC membrane lysate, 14, 16, 18 and 29 kDa bands, label: biotin (3')), “binds”.
